Assay results taken from PubChem BioAssay AID1671190 (National Center for Advancing Translational Sciences (NCATS), 2021).
Among all 580,000 compounds or so, about 6,100 (1.1%) were called active. This list was built around the results that the source calls inconclusive (neither active nor inactive); the mix of calls is not that of the screen. The call rests on the fitted dose curve; in most records, active means well fitted inhibition curve with a large enough effect; inconclusive means small, poorly fitted or top-dose-only effect, or another doubt; inactive means no such curve, though single readings can be large or run the other way. Where the call is inconclusive, the potency comes from a doubtful curve fit.

Chains of the proteins cited; added tags and fusions are not shown. Lines headed by an entry give the natural chain unless they say otherwise; changes in a name come on top.
UniProt P18054: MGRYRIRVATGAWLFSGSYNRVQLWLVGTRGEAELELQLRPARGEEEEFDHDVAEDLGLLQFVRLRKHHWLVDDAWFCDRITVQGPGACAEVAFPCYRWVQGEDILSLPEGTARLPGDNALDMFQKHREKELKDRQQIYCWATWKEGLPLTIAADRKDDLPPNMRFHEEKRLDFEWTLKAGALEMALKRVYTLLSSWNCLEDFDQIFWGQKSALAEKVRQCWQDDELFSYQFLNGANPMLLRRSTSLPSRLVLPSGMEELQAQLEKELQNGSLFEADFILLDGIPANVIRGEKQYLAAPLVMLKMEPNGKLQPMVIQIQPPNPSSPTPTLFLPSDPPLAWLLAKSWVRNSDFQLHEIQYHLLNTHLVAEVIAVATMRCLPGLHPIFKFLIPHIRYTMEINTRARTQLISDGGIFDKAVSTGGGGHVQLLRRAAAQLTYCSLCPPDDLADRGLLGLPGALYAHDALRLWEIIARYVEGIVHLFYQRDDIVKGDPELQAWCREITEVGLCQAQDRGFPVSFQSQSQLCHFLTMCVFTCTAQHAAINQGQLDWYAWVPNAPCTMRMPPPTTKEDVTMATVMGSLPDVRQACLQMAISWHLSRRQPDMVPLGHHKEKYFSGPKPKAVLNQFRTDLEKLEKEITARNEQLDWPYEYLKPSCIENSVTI

The compounds below were run against Polyunsaturated fatty acid lipoxygenase ALOX12 (Homo sapiens) (UniProt P18054) (assay: Primary qHTS assay for inhibitors of human arachidonate 12S-lipoxygenase (ALOX12): Round 2). Conditions: purified 12hLO, xylenol orange hydroperoxide absorbance; activity change, negative = inhibition: at 108 µM (top of the series) unless noted.
Method in brief: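 Hydroperoxide product was detected by ferrous iron/xylenol orange as the 573 to 405 nm absorbance ratio. Arachidonic acid at 40 uM (final) was turned over for 30 min at room temperature by 150 nM human 12hLO, pH 7.0 Hepes buffer, after 15 min compound preincubation.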
On the % scale 0 is the no-effect control and ±100 the full control effect; potency means the concentration at half of the fitted maximal effect.

Row | Structure (SMILES) | activity change, negative = inhibition | Potency
1 | O=C(c1ccoc1)N1CCC(c2n[nH]c(=O)n2Cc2ccc(F)cc2)CC1 | inactive: 17.2% | –
2 | CCOC(=O)N1CCC(NC(=O)c2cc(C(=O)Nc3ccc(S(=O)(=O)N4CCOCC4)cc3)ccc2CO)CC1 | – | inconclusive: 100 µM [inhibitor, single point]
3 | CC(=O)N(CCC(Cc1ccccc1)c1ccc2c(c1)OCO2)Cc1ccc(Cl)cc1 (centres undefined) | – | inconclusive: 2.82 µM [inhibitor, full curve, poor fit]
4 | Nc1nonc1-n1nnc(C(=O)N/N=C/c2ccccc2)c1CSc1ccccc1 | – | inconclusive: 100 µM [inhibitor, partial curve, poor fit]
5 | COc1ccc(/C=C2\Cc3ccccc3C2=O)cc1Br | inactive: -14.8% | –
6 | O=C(Nc1nn[nH]n1)c1cccc(S(=O)(=O)N2CCCCCC2)c1 | – | active: 10 µM
7 | COc1cc2c(cc1OC)CN(C(=O)CSc1nnc3scc(-c4ccccc4)n13)CC2 | inactive: 0.745% [at 57.4 µM] | –
8 | Cc1ccc(S(=O)(=O)NCCCC(=O)C=[N+]=[N-])cc1 | – | inconclusive: 39.8 µM [inhibitor, partial curve, poor fit]
9 | COc1cccc(OC)c1-c1nn2c(-c3cc(-c4ccccc4)n[nH]3)nnc2s1 | inactive: 0% | –
10 | COc1ccc(-c2nnc(-c3cc4ccccc4oc3=O)o2)cc1 | inactive: 21.2% | –
11 | CCN(CC)CCCNC(=O)c1ccc(OCC(=O)Nc2ccccc2C(F)(F)F)c(OC)c1 | inactive: -20.2% | –
12 | O=C(O)c1cc(C(F)(F)F)nc2ccccc12 | – | inconclusive: 126 µM [inhibitor, partial curve, poor fit]
13 | CC1(C)CC(CC(=O)NNc2nc(-c3ccccc3)cs2)C(=O)O1 (centres undefined) | inactive: 20.6% | –
14 | COc1ccc(OC)c(NC(=O)CCN2CCN(c3ccccc3OC)CC2)c1 | – | inconclusive: 0.562 µM [inhibitor, full curve, poor fit]
15 | CC(=O)c1ccc(N2C(=O)CC(N3CCN(S(=O)(=O)c4cc(C)ccc4C)CC3)C2=O)cc1 (centres undefined) | – | inconclusive: 79.4 µM [inhibitor, partial curve, poor fit]
16 | O=C(CN1CCN(c2ccc(O)cc2)CC1)Nc1cc(S(=O)(=O)N2CCCCC2)ccc1Cl | – | inconclusive: 35.5 µM [inhibitor, partial curve, poor fit]
17 | CCCN(Cc1ccccc1)C(=O)COc1ccc2ccc(=O)oc2c1 | inactive: 1.28% | –
18 | CC1CCN(CCC(=O)N(CC#N)CC#N)c2ccccc21 (centres undefined) | – | inconclusive: 35.5 µM [inhibitor, partial curve, poor fit]
19 | O=C1CC(c2ccccc2)N(C(=O)CNS(=O)(=O)c2cccs2)CCCCCN1 (centres undefined) | – | inconclusive: 70.8 µM [inhibitor, partial curve]

Random excerpt: 2 compounds from above
Row | Structure (SMILES) | activity change, negative = inhibition | Potency
14 | COc1ccc(OC)c(NC(=O)CCN2CCN(c3ccccc3OC)CC2)c1 | – | inconclusive: 0.562 µM [inhibitor, full curve, poor fit]
13 | CC1(C)CC(CC(=O)NNc2nc(-c3ccccc3)cs2)C(=O)O1 (centres undefined) | inactive: 20.6% | –
